In paper PMC8920343:
Results are given in words; binding and its absence hold for the method and conditions named. For some of these results: Binding seen in cells or lysates may run through a third protein. Some entries that bind do so weakly or less than the wild type.

Protein sequences, listed by entry. Tags and fused reporters are not part of them. Lines headed by an entry give the natural chain unless they say otherwise; changes in a name come on top.
UniProt Q16665: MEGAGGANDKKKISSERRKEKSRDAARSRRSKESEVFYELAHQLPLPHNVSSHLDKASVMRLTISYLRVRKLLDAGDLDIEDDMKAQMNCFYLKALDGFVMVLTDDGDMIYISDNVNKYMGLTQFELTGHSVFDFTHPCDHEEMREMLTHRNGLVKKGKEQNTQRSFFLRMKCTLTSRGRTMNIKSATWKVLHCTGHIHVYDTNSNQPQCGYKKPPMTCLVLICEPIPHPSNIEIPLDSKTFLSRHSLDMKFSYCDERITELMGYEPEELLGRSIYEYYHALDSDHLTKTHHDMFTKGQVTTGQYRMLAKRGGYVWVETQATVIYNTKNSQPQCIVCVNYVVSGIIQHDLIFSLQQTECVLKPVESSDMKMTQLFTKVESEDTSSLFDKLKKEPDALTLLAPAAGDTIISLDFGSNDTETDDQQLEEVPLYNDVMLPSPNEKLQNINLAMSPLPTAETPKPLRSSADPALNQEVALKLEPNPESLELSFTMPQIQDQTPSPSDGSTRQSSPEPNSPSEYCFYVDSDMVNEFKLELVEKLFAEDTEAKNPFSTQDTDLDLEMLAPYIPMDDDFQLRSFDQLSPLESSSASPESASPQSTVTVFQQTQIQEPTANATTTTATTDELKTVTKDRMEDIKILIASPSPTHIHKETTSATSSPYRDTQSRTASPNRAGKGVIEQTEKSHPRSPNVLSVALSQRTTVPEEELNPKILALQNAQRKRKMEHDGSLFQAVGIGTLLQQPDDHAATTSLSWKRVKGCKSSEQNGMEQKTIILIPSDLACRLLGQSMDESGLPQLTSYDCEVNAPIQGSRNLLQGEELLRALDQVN
UniProt P46937: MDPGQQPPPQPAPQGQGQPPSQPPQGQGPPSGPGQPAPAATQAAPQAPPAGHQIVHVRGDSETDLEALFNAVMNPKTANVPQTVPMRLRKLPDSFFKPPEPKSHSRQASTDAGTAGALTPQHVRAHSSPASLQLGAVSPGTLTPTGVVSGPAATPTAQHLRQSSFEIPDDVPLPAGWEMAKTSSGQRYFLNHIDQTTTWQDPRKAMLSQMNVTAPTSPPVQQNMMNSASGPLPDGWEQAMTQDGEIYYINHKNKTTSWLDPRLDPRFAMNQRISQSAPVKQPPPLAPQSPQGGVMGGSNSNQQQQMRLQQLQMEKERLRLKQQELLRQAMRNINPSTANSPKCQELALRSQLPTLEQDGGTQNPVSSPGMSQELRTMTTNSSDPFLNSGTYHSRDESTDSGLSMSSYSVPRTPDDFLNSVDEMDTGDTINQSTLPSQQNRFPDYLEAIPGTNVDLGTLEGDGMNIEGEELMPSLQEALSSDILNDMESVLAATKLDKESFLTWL

What was measured:
[1] = target: HA–HIF-1α P402A/P564A, a stabilized form of HIF-1α, plasmid-expressed in HEK293 cells (UniProt Q16665); test: co-IP; HEK293 cells in which only 2 of the 3 proteins (FLAG-YAP, Myc-TEAD1, HA–HIF-1α P402A/P564A) were overexpressed; lysate with antibody covalently linked to Protein G-Sepharose, 4°C, 2 h; immunoblot
[2] = target: HA–HIF-1α P402A/P564A, a stabilized form of HIF-1α, plasmid-expressed in HEK293 cells (UniProt Q16665); test: co-IP; HEK293 cells transfected with FLAG-YAP, Myc-TEAD1 and HA–HIF-1α P402A/P564A together; 3 μM MG-132 24 h before harvest; lysate (150 μg) with antibody (4 μg) covalently linked to Protein G-Sepharose, 4°C, 2 h; lysis buffer 10 mM Tris pH 7.5, 150 mM NaCl, 5 mM EDTA, 1% Triton X-100, 50 mM NaF, 10% glycerol; immunoblot
[3] = target: HA–HIF-1α P402A/P564A expressed from adenovirus (Ad-HA–HIF-1α P402A/P564A) in neonatal rat ventricular myocytes (UniProt Q16665); test: co-IP; NRVMs transduced with Ad-FLAG-YAP, Ad-Myc-TEAD1 and Ad-HA–HIF-1α P402A/P564A together; 3 μM MG-132 24 h before harvest; lysate (150 μg) with antibody (4 μg) covalently linked to Protein G-Sepharose, 4°C, 2 h; lysis buffer 10 mM Tris pH 7.5, 150 mM NaCl, 5 mM EDTA, 1% Triton X-100, 50 mM NaF, 10% glycerol; immunoblot
GST–HIF-1α (human) [4] = target: GST–HIF-1α (human) (UniProt Q16665); test: pull-down; GST-fused bait on glutathione-sepharose 4B incubated with one recombinant protein alone (individually); binding buffer 10 mM HEPES pH 7.9, 2.5 mM MgCl2, 50 mM KCl, 150 mM NaCl, 5% glycerol, 1 mM DTT, 0.1% NP-40; 2 h, 4°C; immunoblot; both purified
GST–HIF-1α (human) [5] = target: GST–HIF-1α (human) (UniProt Q16665); test: pull-down; GST-fused bait on glutathione-sepharose 4B incubated with two recombinant proteins in combination (also with rising amounts of recombinant YAP); binding buffer 10 mM HEPES pH 7.9, 2.5 mM MgCl2, 50 mM KCl, 150 mM NaCl, 5% glycerol, 1 mM DTT, 0.1% NP-40; 2 h, 4°C; immunoblot; both purified
[6] = target: glutathione S-transferase–YAP (GST-YAP) (human) (UniProt P46937); test: pull-down; GST-fused bait on glutathione-sepharose 4B incubated with one recombinant protein alone (individually); binding buffer 10 mM HEPES pH 7.9, 2.5 mM MgCl2, 50 mM KCl, 150 mM NaCl, 5% glycerol, 1 mM DTT, 0.1% NP-40; 2 h, 4°C; immunoblot; both purified
[7] = target: glutathione S-transferase–YAP (GST-YAP) (human) (UniProt P46937); test: pull-down; GST-fused bait on glutathione-sepharose 4B incubated with two recombinant proteins in combination (also with rising amounts of recombinant YAP); binding buffer 10 mM HEPES pH 7.9, 2.5 mM MgCl2, 50 mM KCl, 150 mM NaCl, 5% glycerol, 1 mM DTT, 0.1% NP-40; 2 h, 4°C; immunoblot; both purified

In the case of “FLAG-YAP (Yes-associated protein 1), plasmid-expressed in HEK293 cells (from UniProt P46937 1-504)”, the binding [1] is reported as “binds” and the binding [2] is reported as “binds”.
For “FLAG-YAP expressed from adenovirus (Ad-FLAG-YAP) in neonatal rat ventricular myocytes (from UniProt P46937 1-504)”, the binding [3] was “binds”.
“recombinant YAP (from UniProt P46937 1-504)” was tested, and the binding (GST–HIF-1α (human) [4]) was “binds” and the binding (GST–HIF-1α (human) [5]) was “binds”.
With “recombinant HIF-1α (from UniProt Q16665 1-826)” the binding [6] was “binds” and the binding [7] was “binds”.
